Test results as given in PubChem BioAssay AID2685 (National Center for Advancing Translational Sciences (NCATS), 2010).
The other results are listed elsewhere or left out. Further columns of the screen follow, without active or inactive calls. Most of these compounds were active or inconclusive in the main read-out, so they are no random draw. The note in brackets gives the kind of curve behind each potency; many fits are weak.

Experiment: qHTS Assay for Lipid Storage Modulators in Drosophila S3 Cells;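 for cell number change: cells counted by Cell Tracker Red CMTPX staining in the red channel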
Settings: BODIPY lipid droplet fluorescence, 18-24 h; for cell number change: measured here: cell count max response, cells fed with added oleic acid
How it was run: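 Drosophila S3 cells loaded with oleic acid (400 uM, as added) and compounds at several concentrations; lipid droplets imaged by 488-nm laser-scanning cytometry, 500–530 nm intensity and object ratio to cell channel. Percent activity normalized to 20 uM Triacsin C.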

[1] = measured here: lipid fluorescence (Fed channel) AC50, cells fed with added oleic acid
[2] = measured here: cell number channel AC50, cells fed with added oleic acid

| Compound | cell number change | AC50 [1] | AC50 [2] |
| --- | --- | --- | --- |
| O=C(CCc1nnc(Cc2ccc3c(c2)OCO3)o1)NC(c1ccccn1)C(F)(F)F (stereo not given) | -13.2% | – | – |
| CC(C)(C)c1cc(C(=O)N2CCc3ccccc32)ccn1 | -17.1% | 14.6 µM [rising, single point] | – |
| C=CCn1c(Cc2c(C)[nH]c3ccccc23)nnc1SCC(=O)NCc1ccc(F)cc1 | -16.1% | 29.1 µM [falling, single point] | – |
| O=C(CSc1ncnc2scc(-c3ccccc3)c12)NCc1ccc2c(c1)OCO2 | 8.23% | 29.1 µM [falling, single point] | – |
| CC(O)CNC(=O)C1CCN(Cc2ccc(OCc3ccccc3)cc2)CC1 (stereo not given) | 9.26% | 10.3 µM [falling, single point] | – |
| CCOC(=O)C1CCN(C(=O)CSC2=NCCS2)CC1 | 6.42% | – | – |
| O=C(CS(=O)(=O)c1ccccc1)Nc1nnc(C(F)(F)F)s1 | 17.2% | – | – |
| Cc1nc2ccc(NC(=O)c3ccccc3)cc2s1 | -104% | – | 6.51 µM [falling, single point] |
| Cc1cc([N+](=O)[O-])nn1CCCC(=O)N1CCN(c2ccccc2)CC1 | -2.93% | 20.6 µM [rising, single point] | – |
| CCc1nc(SCC(=O)NCC2CCCO2)c2oc3ccccc3c2n1 (stereo not given) | 3.85% | 2.59 µM [rising, single point] | – |
| CCOC(=O)CNC(=O)CNC(=O)c1ccc(OCC(C)C)cc1 | -19.6% | 3.26 µM [falling, full curve] | – |
| CC(C)[C@H](NC(=O)c1ccco1)C(=O)OCC(=O)Nc1ccccc1OC(F)F | 38.5% | – | 0.231 µM [rising, full curve, poor fit] |
| Cc1cccc(Cl)c1OCCCCn1ccnc1 | 25.2% | – | – |
| CCCn1c(COc2ccccc2)nc2ccccc21 | 24.6% | – | 0.0461 µM [rising, full curve, poor fit] |
| O=C(c1ccccc1)N1CCC(CC2CC(c3ccc(Cl)cc3)=NO2)(C(=O)NCC2CCCCC2)CC1 (stereo not given) | 3.56% | – | 2.31 µM [rising, partial curve, poor fit] |
| CCOC(=O)N1CC(=O)Nc2ccc(Br)cc2C1c1ccccc1 (stereo not given) | 27.9% | – | – |
| Cc1ccccc1Cn1cnc2c([N+](=O)[O-])c(C)c(C)cc21 | 0.0776% | 3.66 µM [rising, single point] | 6.51 µM [falling, single point] |
| O=C(c1cccnc1)N1CCC(c2nc3ccccc3[nH]2)CC1 | 0.94% | 0.00517 µM [rising, full curve, poor fit] | 0.00517 µM [rising, full curve, poor fit] |
| Cc1cccc(N(Cc2ccccc2)C(=O)CSC(C)C(=O)Nc2cc(C)on2)c1 (stereo not given) | -99.2% | – | 20.6 µM [falling, single point] |

Some of the entries so far, with bars between the fields.
Compound | cell number change | AC50 [1] | AC50 [2]
O=C(CSc1ncnc2scc(-c3ccccc3)c12)NCc1ccc2c(c1)OCO2 | 8.23% | 29.1 µM [falling, single point] | –
CC(O)CNC(=O)C1CCN(Cc2ccc(OCc3ccccc3)cc2)CC1 (stereo not given) | 9.26% | 10.3 µM [falling, single point] | –
CCOC(=O)C1CCN(C(=O)CSC2=NCCS2)CC1 | 6.42% | – | –

Further structures.

| Compound | cell number change | AC50 [1] | AC50 [2] |
| --- | --- | --- | --- |
| COc1ccc(CC(NC(=O)c2ccccc2)C(=O)NCC(=O)O)cc1 (stereo not given) | 11.8% | 0.206 µM [rising, full curve, poor fit] | 0.291 µM [rising, full curve, poor fit] |
| CCCCOc1ccc(/C=C/C(=O)OCC(=O)NC2CCS(=O)(=O)C2)cc1OCC (stereo not given) | -7% | – | – |
| CC(=O)c1ccc(N(C(=O)CNC(=O)c2ccco2)C(C(=O)NC2CCCC2)c2ccc(C)o2)cc1 (stereo not given) | -15.4% | 3.66 µM [rising, partial curve, poor fit] | – |
| Cc1occc1C(=O)O/N=C(\N)c1ccc(Cl)cc1 | 34.6% | – | 20.6 µM [rising, single point] |
| CCCCNC(=O)CS(=O)Cc1nc(-c2cccc(C)c2)oc1C (stereo not given) | -14.8% | – | – |
| CN(C(=O)c1ccc(NC(=O)Cc2ccc(NC(=O)C3CCN(C(=O)C4CCCCC4)CC3)cc2)cc1)C1CC1 | -3.81% | 6.51 µM [falling, single point] | 6.51 µM [falling, single point] |
| CCS(=O)(=O)N1CCC(C(=O)NCc2cccs2)CC1 | -197% | 0.291 µM [falling, full curve, poor fit] | 29.1 µM [falling, partial curve] |
| COc1cc(OC)cc(OC(=O)c2cccc(S(=O)(=O)N3CCN(C)CC3)c2)c1 | -37% | – | 2.31 µM [falling, partial curve, poor fit] |
| Cc1nc(NC(=O)c2cccc(Cl)c2)sc1-c1csc(Nc2cccc(Cl)c2)n1 | 15.5% | – | – |
| O=C(CN1CCC(O)(c2cccc(C(F)(F)F)c2)CC1)NCCc1ccccc1 | 37.5% | 29.1 µM [falling, single point] | – |
| O=C1[C@H]2CC3C=CC2(O3)[C@@H]2OCCCN12 (stereo not given in full) | 6.01% | 0.326 µM [falling, full curve] | – |
| CCC1=NN2C(=N)/C(=C\c3cccn3-c3ccc(C)c(C)c3)C(=O)N=C2S1 | – | 13 µM [falling, partial curve] | – |
| CS(=O)(=O)N(CC(=O)N1CCN(Cc2ccccc2)CC1)c1ccccc1Br | -0.806% | 0.092 µM [rising, single point] | – |
| CC1(c2ccc(Cl)cc2)NC(=O)N(CC(=O)NCc2cccs2)C1=O (stereo not given) | -10% | 0.517 µM [falling, full curve, poor fit] | 0.291 µM [falling, full curve] |
| CC(C)(C)C(=O)NC(CC(=O)O)c1ccccc1 (stereo not given) | -17% | 0.116 µM [falling, full curve, poor fit] | – |
| Cc1ccc(O)c(C2=Nc3ccccc3N=C(c3ccco3)C2)c1 | -54.2% | 11.6 µM [falling, partial curve] | 32.6 µM [falling, partial curve, poor fit] |
| COc1ccc(C(=O)N(CC2CCCO2)C(C(=O)NC2CCCC2)c2ccc(Cl)cc2)cc1OC (stereo not given) | – | 6.51 µM [rising, single point] | 6.51 µM [rising, single point] |
| CCN(CC(=O)Nc1c(F)cccc1F)C(=O)C1CC1C (stereo not given) | -75% | 1.46 µM [rising, partial curve, poor fit] | 16.4 µM [falling, single point] |
| COc1cc(C(=S)N2CCOCC2)ccc1OC(=O)c1cc([N+](=O)[O-])c(C)c([N+](=O)[O-])c1 | -56% | – | 18.4 µM [falling, single point] |
